Results are given in words; binding and its absence hold for the method and conditions named. Binding seen in cells or lysates may run through a third protein. Sequences can lack the tags named with a protein.
Biological target: T1, GFP-tagged ETS2 repressor factor (ERF) (human) (UniProt P50548)
T1 sequence: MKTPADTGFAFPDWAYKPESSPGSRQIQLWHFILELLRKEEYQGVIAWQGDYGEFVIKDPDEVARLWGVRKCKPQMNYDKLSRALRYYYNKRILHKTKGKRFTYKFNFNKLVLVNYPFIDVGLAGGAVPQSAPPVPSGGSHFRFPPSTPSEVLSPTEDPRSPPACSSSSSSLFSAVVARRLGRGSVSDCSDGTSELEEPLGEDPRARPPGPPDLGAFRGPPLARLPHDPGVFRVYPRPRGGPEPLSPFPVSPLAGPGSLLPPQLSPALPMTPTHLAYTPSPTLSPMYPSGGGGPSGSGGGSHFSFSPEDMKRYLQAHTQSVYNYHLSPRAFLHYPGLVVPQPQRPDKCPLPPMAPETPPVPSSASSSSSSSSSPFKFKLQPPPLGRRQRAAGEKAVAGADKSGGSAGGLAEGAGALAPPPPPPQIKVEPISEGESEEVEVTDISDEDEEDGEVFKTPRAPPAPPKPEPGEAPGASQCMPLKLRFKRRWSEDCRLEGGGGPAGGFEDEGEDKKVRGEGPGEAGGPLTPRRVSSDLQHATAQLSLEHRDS
Assay: co-IP; 293T cells transfected with GFP-tagged ERF for 48 hr; lysate incubated with anti-GFP magnetic beads (or IgG on Dynabeads Protein G) overnight at 4 °C; blotted for GFP or CIC

Amino acid sequences for entries named in this document (tags omitted).
UniProt Q96RK0: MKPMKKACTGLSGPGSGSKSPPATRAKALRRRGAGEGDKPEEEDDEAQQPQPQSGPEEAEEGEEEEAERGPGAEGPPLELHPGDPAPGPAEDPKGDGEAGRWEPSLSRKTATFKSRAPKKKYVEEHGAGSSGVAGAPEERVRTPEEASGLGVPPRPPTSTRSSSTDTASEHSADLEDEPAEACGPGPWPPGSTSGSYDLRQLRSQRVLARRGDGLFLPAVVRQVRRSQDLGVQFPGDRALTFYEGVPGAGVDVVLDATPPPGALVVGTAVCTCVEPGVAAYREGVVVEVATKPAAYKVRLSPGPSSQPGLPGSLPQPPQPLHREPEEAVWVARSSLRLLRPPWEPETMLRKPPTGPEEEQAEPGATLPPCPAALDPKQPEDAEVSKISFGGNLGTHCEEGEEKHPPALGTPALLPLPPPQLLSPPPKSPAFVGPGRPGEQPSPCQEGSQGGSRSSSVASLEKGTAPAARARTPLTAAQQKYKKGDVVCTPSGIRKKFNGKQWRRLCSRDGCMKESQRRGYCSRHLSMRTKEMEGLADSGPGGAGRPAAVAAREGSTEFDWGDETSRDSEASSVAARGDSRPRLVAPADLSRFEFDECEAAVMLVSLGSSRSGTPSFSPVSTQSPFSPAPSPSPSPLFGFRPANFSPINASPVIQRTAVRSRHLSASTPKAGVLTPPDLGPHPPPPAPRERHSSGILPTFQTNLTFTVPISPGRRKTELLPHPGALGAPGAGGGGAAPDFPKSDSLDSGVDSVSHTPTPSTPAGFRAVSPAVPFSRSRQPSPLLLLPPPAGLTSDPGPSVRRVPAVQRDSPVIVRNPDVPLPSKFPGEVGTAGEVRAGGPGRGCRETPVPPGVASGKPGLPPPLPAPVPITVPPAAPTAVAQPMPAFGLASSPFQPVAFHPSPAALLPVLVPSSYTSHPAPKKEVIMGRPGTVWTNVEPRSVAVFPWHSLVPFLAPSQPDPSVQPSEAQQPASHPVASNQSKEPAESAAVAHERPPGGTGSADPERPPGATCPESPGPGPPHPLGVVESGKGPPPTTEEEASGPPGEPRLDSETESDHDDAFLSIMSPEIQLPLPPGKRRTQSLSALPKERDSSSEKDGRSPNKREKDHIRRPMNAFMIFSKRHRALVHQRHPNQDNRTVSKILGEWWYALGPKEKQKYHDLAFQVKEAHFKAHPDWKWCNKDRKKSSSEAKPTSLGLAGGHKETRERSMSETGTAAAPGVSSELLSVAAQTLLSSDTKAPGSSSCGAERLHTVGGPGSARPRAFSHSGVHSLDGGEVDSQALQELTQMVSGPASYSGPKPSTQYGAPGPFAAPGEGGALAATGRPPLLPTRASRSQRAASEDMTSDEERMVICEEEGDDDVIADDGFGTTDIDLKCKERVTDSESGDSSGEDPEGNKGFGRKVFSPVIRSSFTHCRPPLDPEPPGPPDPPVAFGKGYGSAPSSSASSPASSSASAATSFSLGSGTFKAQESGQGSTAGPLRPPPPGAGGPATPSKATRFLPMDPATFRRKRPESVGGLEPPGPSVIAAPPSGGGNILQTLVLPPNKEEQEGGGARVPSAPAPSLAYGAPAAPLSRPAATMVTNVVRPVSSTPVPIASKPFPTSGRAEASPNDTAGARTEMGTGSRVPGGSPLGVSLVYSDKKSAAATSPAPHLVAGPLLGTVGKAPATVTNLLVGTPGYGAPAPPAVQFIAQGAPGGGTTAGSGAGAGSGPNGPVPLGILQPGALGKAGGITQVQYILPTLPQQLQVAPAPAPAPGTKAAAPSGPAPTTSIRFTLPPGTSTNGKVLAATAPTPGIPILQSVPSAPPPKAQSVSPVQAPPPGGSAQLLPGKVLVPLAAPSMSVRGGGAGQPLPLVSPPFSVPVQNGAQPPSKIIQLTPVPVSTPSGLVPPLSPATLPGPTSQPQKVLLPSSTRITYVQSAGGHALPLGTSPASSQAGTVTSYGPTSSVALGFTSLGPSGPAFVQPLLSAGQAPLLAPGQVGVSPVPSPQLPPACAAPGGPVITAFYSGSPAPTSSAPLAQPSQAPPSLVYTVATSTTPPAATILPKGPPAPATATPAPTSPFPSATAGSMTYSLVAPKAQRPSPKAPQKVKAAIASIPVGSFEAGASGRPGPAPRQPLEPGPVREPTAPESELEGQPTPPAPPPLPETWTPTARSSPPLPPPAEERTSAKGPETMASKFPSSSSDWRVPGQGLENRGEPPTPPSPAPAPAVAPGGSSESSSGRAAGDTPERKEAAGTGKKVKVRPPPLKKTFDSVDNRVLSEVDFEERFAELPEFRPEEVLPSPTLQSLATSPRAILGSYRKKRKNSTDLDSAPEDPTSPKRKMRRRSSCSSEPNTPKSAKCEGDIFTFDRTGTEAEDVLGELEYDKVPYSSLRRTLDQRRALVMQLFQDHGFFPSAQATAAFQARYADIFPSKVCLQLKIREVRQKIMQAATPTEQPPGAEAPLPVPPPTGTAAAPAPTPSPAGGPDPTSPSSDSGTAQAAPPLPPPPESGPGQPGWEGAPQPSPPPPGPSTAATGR

binding: no binding
Substance: Capicua (CIC), detected by CIC antibody in 293T lysate (from UniProt Q96RK0 1-2517)
